Reference: patent US12514866B2, “Method for treating cancer” (National Taiwan University, priority 2021, dated 2026)
At least one structure is not confirmed: it was looked up by name or label, or the drawing left a doubt.

Tested on: breast cancer cell lines Hs578T and MDA-MB-231, ovarian cancer cell lines ES-2 and TOV-21G
Test: γδ T cell-mediated cytotoxicity assay (Annexin V and propidium iodide)
Type: cell-based, human
Conditions: MDA-MB-231, ES-2, TOV-21G, 100 nM, E:T 3:1

SMILES: Nc1ncn([C@H]2C[C@H](O)[C@@H](CO)O2)c(=O)n1 [DAC, decitabine]
- γδ T cell killing effect after DAC pretreatment: enhanced
